# Measurements published in US6911526B2, “Compounds that inhibit the interaction between signal-transducing proteins and the GLGF (PDZ/DHR) domain and uses thereof” (The Trustees of Columbia University in the City of New York, priority 1996, dated 2005).
# By UniProt entry, the sequences of proteins in these tests, tags left out. Residues count along the entry.
# UniProt Q12923, residues 1279-1883: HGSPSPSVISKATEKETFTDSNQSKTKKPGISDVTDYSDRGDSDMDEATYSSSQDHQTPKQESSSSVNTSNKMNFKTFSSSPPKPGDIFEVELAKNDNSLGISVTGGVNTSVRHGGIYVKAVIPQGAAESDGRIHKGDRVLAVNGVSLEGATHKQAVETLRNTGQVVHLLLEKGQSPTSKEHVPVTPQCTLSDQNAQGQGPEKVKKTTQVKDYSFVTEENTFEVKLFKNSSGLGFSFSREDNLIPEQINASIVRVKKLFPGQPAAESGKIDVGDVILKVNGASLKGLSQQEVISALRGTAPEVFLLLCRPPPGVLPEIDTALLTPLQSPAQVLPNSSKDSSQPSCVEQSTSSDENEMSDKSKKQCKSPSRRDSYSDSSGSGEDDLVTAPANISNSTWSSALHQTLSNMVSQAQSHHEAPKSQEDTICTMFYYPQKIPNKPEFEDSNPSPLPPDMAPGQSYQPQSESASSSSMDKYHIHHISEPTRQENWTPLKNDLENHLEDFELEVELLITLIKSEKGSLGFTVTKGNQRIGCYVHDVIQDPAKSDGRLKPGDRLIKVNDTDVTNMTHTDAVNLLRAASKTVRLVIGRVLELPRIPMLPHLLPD
# These are yes or no findings as the source states them, for the method shown. Some binding calls cover weakened binding; strength is not graded here.
# Assays:
# [1] = biological target: in vitro-translated 35S-labeled FAP-1 (from HFAP-10 cDNA) (UniProt Q12923); experiment: competition: acetylated peptide against GST-Fas for 35S FAP-1
# [2] = biological target: in vitro-translated 35S-labeled FAP-1 (from HFAP-10 cDNA) (UniProt Q12923); experiment: competition: peptide (1-1000 uM) against GST-Fas for 35S FAP-1
# [3] = biological target: in vitro-translated 35S-labeled FAP-1 (from HFAP-10 cDNA) (UniProt Q12923); experiment: competition: acetylated truncated peptides (FIG. 3B) against GST-Fas for 35S FAP-1
binding [1],binding [2],binding [3],Binder
binds,,,"NEIQSLV (N-terminal acetyl) [NEIQSLV (SEQ ID NO: 21), acetylated truncated C-terminal peptide of Fas]"
,binds,binds,DSENSNFRNEIQSLV (N-terminal acetyl) [synthetic peptide of the C-terminal 15 amino acids of Fas]
binds,,,"RNEIQSLV (N-terminal acetyl) [RNEIQSLV (SEQ ID NO: 22), acetylated truncated C-terminal peptide of Fas]"

# The remaining lines, values behind:
Binder,binding [1],binding [2],binding [3]
"EIQSLV (N-terminal acetyl) [EIQSLV (SEQ ID NO: 20), acetylated truncated C-terminal peptide of Fas]",binds,,
"IQSLV (N-terminal acetyl) [IQSLV (SEQ ID NO: 19), acetylated truncated C-terminal peptide of Fas]",binds,,
